Reference: paper PMC9949265
These are yes or no findings as the source states them, for the method shown. In cells and extracts the contact can be indirect. Some entries that bind do so weakly or less than the wild type.

Chains of the proteins cited; added tags and fusions are not shown. Residues count along the entry.
UniProt Q8NI17, residues 20-732: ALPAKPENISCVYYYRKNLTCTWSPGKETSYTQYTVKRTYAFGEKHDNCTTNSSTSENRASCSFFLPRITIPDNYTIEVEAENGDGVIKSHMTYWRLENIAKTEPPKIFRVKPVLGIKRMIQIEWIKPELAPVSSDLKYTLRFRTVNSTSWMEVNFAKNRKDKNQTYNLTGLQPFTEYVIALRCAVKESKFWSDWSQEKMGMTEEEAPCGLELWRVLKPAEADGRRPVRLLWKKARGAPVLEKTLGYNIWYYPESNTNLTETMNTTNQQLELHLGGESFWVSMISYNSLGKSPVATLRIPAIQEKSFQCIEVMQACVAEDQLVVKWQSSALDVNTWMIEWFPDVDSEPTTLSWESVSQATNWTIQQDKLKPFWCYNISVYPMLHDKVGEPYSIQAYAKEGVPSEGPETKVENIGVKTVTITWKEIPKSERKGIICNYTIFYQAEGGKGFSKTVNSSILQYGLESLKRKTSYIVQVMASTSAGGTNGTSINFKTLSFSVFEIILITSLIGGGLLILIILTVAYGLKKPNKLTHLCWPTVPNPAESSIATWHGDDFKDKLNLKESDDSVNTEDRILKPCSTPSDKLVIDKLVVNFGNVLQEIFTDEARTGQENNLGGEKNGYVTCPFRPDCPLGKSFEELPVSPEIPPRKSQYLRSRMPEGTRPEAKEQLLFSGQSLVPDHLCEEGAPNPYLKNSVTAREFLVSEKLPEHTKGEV
UniProt P20309: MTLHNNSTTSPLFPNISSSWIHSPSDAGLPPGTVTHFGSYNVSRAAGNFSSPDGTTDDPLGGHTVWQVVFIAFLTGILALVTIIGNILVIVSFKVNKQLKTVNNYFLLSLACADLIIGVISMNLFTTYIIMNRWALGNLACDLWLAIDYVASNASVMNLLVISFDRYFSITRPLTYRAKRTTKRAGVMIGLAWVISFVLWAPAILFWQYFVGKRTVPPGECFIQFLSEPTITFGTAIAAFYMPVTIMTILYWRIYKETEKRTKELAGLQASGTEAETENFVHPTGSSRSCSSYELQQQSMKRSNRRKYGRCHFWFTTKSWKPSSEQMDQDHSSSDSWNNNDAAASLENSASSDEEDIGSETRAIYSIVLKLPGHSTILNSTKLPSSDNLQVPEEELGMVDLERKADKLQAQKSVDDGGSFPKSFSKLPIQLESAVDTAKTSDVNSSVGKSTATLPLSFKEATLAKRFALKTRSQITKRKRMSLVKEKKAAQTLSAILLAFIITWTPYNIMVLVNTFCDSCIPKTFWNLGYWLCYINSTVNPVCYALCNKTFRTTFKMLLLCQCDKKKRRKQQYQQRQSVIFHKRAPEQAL

Key:
[1] = molecular target: Interleukin 31 receptor alpha (IL-31RA), C-terminal FLAG-tagged, overexpressed (UniProt Q8NI17); assay: proximity ligation; in situ Duolink PLA in HEK293T cells co-transfected with IL-31RA and CHRM3 plasmids or empty control plasmids for 48 h; methanol-fixed; primary antibodies to IL-31RA (goat) and CHRM3 (rabbit); confocal microscopy
[2] = molecular target: Interleukin 31 receptor alpha (IL-31RA), C-terminal FLAG-tagged, overexpressed (UniProt Q8NI17); assay: co-IP; HEK293T transfected with IL-31RA plasmid or empty control plasmid for 72 h; RIPA lysate; agarose A/G beads with anti-FLAG or control IgG; washed three times with PBS; low pH glycine elution; blotted with anti-Flag, anti-IL31RA and anti-CHRM3

Row | binding [1] | binding [2] | Substance
1 | binds |  | Muscarinic acetylcholine receptor 3 (CHRM3), overexpressed (from UniProt P20309 1-590)
2 |  | binds | Endogenous muscarinic acetylcholine receptor 3 (CHRM3) of HEK293T cells (from UniProt P20309 1-590)
